Results are given in words; binding and its absence hold for the method and conditions named. Binding seen in cells or lysates may run through a third protein. Some results given as binding are weak or reduced against the parent protein; the word gives no strength. Sequences can lack the tags named with a protein.
Target: T1, RFP-tagged wild-type Rab5 (Rab5-RFP) (Drosophila) (UniProt Q9V3I2)
T1 sequence: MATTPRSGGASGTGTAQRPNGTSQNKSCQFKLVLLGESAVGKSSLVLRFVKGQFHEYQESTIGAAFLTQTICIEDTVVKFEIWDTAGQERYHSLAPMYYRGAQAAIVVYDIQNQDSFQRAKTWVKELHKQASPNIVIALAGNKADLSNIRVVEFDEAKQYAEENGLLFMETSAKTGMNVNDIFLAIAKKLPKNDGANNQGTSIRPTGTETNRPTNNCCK
Experiment: co-IP; Drosophila S2 cells co-transfected; cell lysates immunoprecipitated by anti-RFP; Western blot

binding: binds
B1: GFP-tagged BMP type-II receptor Punt (Punt-GFP) (receptor, UniProt Q24468 25-516)
chain: SILPGSHGIIECEHFDEKMCNTTQQCETRIEHCKMEADKFPSCYVLWSVNETTGILRIKMKGCFTDMHECNQTECVTSAEPRQGNIHFCCCKGSRCNSNQKYIKSTTEATTQVPKEKTQDGSNLIYIYIGTSVFSVLMVIVGMGLLLYRRRKQAHFNEIPTHEAEITNSSPLLSNRPIQLLEQKASGRFGDVWQAKLNNQDVAVKIFRMQEKESWTTEHDIYKLPRMRHPNILEFLGVEKHMDKPEYWLISTYQHNGSLCDYLKSHTISWPELCRIAESMANGLAHLHEEIPASKTDGLKPSIAHRDFKSKNVLLKSDLTACIADFGLAMIFQPGKPCGDTHGQVGTRRYMAPEVLEGAINFNRDAFLRIDVYACGLVLWEMVSRCDFAGPVGEFQLPFEAELGLRPSLDEVQESVVMKKLRPRLLNSWRAHPGLNVFCDTMEECWDHDAEARLSSSCVMERFAQLNKYPSTQLLIKNHTNIDDAKESTNCL

Source: article PMC5096713
